Drawing on article PMC8889267, this text covers binding for two molecules.

This experiment has as its target T1, CLPC1-TRAP-STREPII (Arabidopsis thaliana) (UniProt Q9FI56).
T1 sequence: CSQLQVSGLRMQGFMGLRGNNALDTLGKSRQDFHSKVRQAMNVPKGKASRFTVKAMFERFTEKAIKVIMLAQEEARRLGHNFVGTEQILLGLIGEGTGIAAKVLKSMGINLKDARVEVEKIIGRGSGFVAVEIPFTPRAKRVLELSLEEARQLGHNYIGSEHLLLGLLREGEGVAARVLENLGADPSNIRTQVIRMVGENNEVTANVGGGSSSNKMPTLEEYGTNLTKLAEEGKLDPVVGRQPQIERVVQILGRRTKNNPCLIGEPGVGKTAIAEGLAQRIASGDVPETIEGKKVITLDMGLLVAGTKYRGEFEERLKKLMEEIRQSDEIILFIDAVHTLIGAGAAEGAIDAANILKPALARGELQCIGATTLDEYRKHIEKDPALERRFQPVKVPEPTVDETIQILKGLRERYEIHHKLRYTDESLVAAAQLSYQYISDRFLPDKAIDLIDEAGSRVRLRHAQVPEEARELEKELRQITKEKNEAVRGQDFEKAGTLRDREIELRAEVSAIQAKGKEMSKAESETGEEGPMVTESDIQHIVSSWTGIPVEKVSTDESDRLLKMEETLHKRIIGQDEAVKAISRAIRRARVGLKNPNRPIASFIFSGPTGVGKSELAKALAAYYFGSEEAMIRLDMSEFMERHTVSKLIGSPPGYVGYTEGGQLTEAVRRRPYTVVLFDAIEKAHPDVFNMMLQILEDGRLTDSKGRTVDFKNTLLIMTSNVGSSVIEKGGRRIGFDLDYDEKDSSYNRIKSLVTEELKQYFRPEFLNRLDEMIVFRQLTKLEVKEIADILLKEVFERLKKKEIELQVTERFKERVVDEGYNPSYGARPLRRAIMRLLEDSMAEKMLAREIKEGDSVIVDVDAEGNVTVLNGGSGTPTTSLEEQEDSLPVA
Description: affinity purification with mass spectrometry; STREPII-tagged CLPC1-WT or CLPC1-TRAP from soluble leaf proteome of transgenic Arabidopsis rosettes, nondenaturing; StrepTactinXT beads, 50 mM Hepes-KOH pH 8.0, 15% glycerol, 10 mM MgCl2, 75 mM NaCl, eluted with 2.5 mM biotin; SDS-PAGE, in-gel trypsin digest, LC-MS/MS, spectral counting; three biological replicates; CGEP-STREP eluates as negative control.

Results are given in words; binding and its absence hold for the method and conditions named. In cells and extracts the contact can be indirect. Here binding means that the protein was enriched with, or labelled near, the bait; the list need not be complete.

B1: DEAD box RNA helicase, RH39 (nara12) 23S rRNA processing (protein, UniProt Q56X76 1-621)
chain: MVGASRTILSLSLSSSLFTFSKIPHVFPFLRLHKPRFHHAFRPLYSAAATTSSPTTETNVTDPDQLKHTILLERLRLRHLKESAKPPQQRPSSVVGVEEESSIRKKSKKLVENFQELGLSEEVMGALQELNIEVPTEIQCIGIPAVMERKSVVLGSHTGSGKTLAYLLPIVQLMREDEANLGKKTKPRRPRTVVLCPTRELSEQVYRVAKSISHHARFRSILVSGGSRIRPQEDSLNNAIDMVVGTPGRILQHIEEGNMVYGDIAYLVLDEADTMFDRGFGPEIRKFLAPLNQRALKTNDQGFQTVLVTATMTMAVQKLVDEEFQGIEHLRTSTLHKKIANARHDFIKLSGGEDKLEALLQVLEPSLAKGSKVMVFCNTLNSSRAVDHYLSENQISTVNYHGEVPAEQRVENLKKFKDEEGDCPTLVCTDLAARGLDLDVDHVVMFDFPKNSIDYLHRTGRTARMGAKGKVTSLVSRKDQMLAARIEEAMRNNESLESLTTDNVRRDAARTHITQEKGRSVKQIREVSKQRNSRDKPSSSSPPARSTGGKTPVRKSSSSSFSKPRKASSPPEKSSKPKRKILKTVGSRSIAARGKTGSDRRPGKKLSVVGFRGKSSSARAS
Regarding B1, the binding entry is recorded as “binds”.

B2: nucleoid protein (pTAC10) (protein, UniProt F4JF21 41-668)
chain: GFSSDEFPVDETFLEKFGPKDKDTEDEARRRNWIERGWAPWEEILTPEADFARKSLNEGEEVPLQSPEAIEAFKMLRPSYRKKKIKEMGITEDEWYAKQFEIRGDKPPPLETSWAGPMVLRQIPPRDWPPRGWEVDRKELEFIREAHKLMAERVWLEDLDKDLRVGEDATVDKMCLERFKVFLKQYKEWVEDNKDRLEEESYKLDQDFYPGRRKRGKDYEDGMYELPFYYPGMVCEGTVTTLHLYQGAFVDIGGVHEGWVPIKGNDWFWIRHFIKVGMHVIVEITAKRDPYRFRFPLELRFVHPNIDHMIFNKFDFPPIFHRDGDTNPDEIRRDCGRPPEPRKDPGSKPEEEGLLSDHPYVDKLWQIHVAEQMILGDYEANPAKYEGKKLSELSDDEDFDEQKDIEYGEAYYKKTKLPKVILKTSVKELDLEAALTERQHHNKLMMEAKARGEGYKIDKLRRNIEMDEYDFLHWRRSLEEREALLRDISSRQALGLPLEEPGRYKPGSFFGKDQYDPTSALYQYDYWGEPKNSEISKQERMKDAHNKSIVGKGNVWYDMSYDDAIKQTIEKRKEGSTLASQEEETESEEEEEDDDDFDDFDYSILSDESSIGYSEQQPLVNGTQVLTD
For B2, the binding result was “binds”.
